Data on one molecule can be found in US20240262917A1, “ANTIBODIES AGAINST ALK AND METHODS OF USE THEREOF” (Dana-Farber Cancer Institute, Inc., priority 2021, published 2024).

This assay has as its target ALK-del MAM2 to 654 aa (human). The assay is described as follows: immunofluorescence on NIH3T3 cells expressing the mutant.

No constants are given. Whether binding was seen depends on the method and setting.

B1: Mouse monoclonal anti-ALK 8G7 (antibody, IgG1, V domains shown)
VH: QVQLQQSGAELVRPGASVTLSCKASGYTFTDYEMHWVKQTPVHGLEWIGAIDPETGGSAYNQKFKAKAILTADRSSSTAYMELRSLTSEDSAVYYCTRTRYYGSSPAMDYWGQGTSVTVSS
VL: DIQMTQTTSSLSASLGDRVTISCSASQGIGNYLNWYQQKPDGTVKLLIYYTSSLHSGVPSRFSGSGSGTDYSLTISNLEPEDIATYYCQQYSKLPYTFGGGTKLEIK
With B1, the binding result is on record as “no binding (tested: 1:100 antibody dilution)”.
